Measured values: patent US20170327536A1, “NEUROTOXIC TARGET FOR AMYLOSPHEROID, METHOD AND MATERIAL FOR REDUCING THE NEUROTOXICITY OF AMYLOSPHEROID, AND USE THEREOF” (TAO Health Life Pharma Co., Ltd., priority 2011, published 2017)
At least one structure is not confirmed: it was looked up by name or label, or the drawing left a doubt.

By UniProt entry, the sequences of proteins in these tests, tags left out. Residues count along the entry.
UniProt P05067, 672-713 limits assumed: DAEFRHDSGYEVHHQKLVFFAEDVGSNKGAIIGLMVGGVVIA

These compounds were tested against ASPD (Homo sapiens, UniProt P05067) (assay: Surface plasmon resonance (SPR), biotinylated AAT peptide on chip, ASPD as ligand). Details: peptide solid phase on chip.
Assay type: binding
From the text: Biotin was bound to each C-terminal side of the above-mentioned AAT peptides 01 to […] and made into a solid phase on a chip, and a dissociation constant was obtained by surface plasmon resonance (SPR) using ASPD as a ligand.

| Compound | Kd [µM] |
| --- | --- |
| CC(C)C[C@H](NC(=O)[C@@H](N)Cc1c[nH]cn1)C(=O)N[C@@H](CC(N)=O)C(=O)N[C@@H](Cc1c[nH]c2ccccc12)C(=O)N[C@@H](Cc1c[nH]c2ccccc12)C(=O)N[C@@H](Cc1c[nH]cn1)C(=O)N[C@@H](CO)C(=O)N[C@@H](Cc1c[nH]c2ccccc12)C(=O)N[C@@H](Cc1ccc(O)cc1)C(=O)N1CCC[C@H]1C(=O)N[C@@H](C)C(=O)N[C@@H](CCCNC(=N)N)C(=O)N[C@@H](CCCCNC(=O)CCCC[C@@H]1SC[C@@H]2NC(=O)N[C@@H]21)C(N)=O [C-terminal biotinylated AAT02] | 0.0824 |
| CC(C)C[C@H](NC(=O)[C@H](CC(N)=O)NC(=O)[C@H](Cc1ccc(O)cc1)NC(=O)[C@H](Cc1c[nH]c2ccccc12)NC(=O)[C@H](CC(N)=O)NC(=O)[C@H](Cc1ccccc1)NC(=O)[C@@H](N)Cc1c[nH]cn1)C(=O)N[C@@H](Cc1c[nH]c2ccccc12)C(=O)N[C@@H](CCCNC(=N)N)C(=O)N[C@H](C(=O)N[C@@H](CCC(N)=O)C(=O)N[C@@H](Cc1ccc(O)cc1)C(=O)N[C@@H](CCCCNC(=O)CCCC[C@@H]1SC[C@@H]2NC(=O)N[C@@H]21)C(N)=O)C(C)C [C-terminal biotinylated AAT01] | 0.0577 |
| CC(C)C[C@H](NC(=O)[C@H](Cc1c[nH]c2ccccc12)NC(=O)[C@H](CC(N)=O)NC(=O)[C@H](CC(C)C)NC(=O)[C@@H](N)Cc1c[nH]cn1)C(=O)N[C@@H](CO)C(=O)N[C@@H](Cc1c[nH]c2ccccc12)C(=O)N[C@@H](Cc1ccccc1)C(=O)N1CCC[C@H]1C(=O)N[C@@H](CO)C(=O)N[C@@H](CCCNC(=N)N)C(=O)N[C@@H](Cc1c[nH]cn1)C(=O)N[C@@H](CCCCNC(=O)CCCC[C@@H]1SC[C@@H]2NC(=O)N[C@@H]21)C(N)=O [C-terminal biotinylated AAT03] | 0.0885 |
